Assay results taken from PMC11605454.
No constants are given. Whether binding was seen depends on the method and setting. Binding seen in cells or lysates may run through a third protein. A yes stands for co-enrichment or nearness to the bait. Other partners may have been found.

Sequences of proteins named here, by UniProt entry; tags and fusion partners are left off. A change or cut given only in a name is not applied to a line headed by its entry.
UniProt Q6ZPK0: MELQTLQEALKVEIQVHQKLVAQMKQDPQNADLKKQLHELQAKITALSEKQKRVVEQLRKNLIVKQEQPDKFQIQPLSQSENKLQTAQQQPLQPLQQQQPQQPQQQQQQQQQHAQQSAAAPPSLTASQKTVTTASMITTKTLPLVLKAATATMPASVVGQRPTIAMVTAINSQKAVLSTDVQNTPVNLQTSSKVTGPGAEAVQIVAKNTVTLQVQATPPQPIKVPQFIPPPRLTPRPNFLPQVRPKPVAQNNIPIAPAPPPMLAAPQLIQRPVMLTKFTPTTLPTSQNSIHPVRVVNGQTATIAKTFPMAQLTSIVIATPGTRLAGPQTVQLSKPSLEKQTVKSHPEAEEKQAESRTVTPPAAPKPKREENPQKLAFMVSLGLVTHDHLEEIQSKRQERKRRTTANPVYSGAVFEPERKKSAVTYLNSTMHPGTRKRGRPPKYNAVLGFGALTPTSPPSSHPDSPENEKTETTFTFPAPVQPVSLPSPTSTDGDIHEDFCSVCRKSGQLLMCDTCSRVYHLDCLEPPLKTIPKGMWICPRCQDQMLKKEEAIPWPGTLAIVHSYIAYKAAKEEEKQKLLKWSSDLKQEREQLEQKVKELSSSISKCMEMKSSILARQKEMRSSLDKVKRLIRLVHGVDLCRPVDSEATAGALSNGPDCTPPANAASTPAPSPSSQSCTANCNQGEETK
UniProt P70288: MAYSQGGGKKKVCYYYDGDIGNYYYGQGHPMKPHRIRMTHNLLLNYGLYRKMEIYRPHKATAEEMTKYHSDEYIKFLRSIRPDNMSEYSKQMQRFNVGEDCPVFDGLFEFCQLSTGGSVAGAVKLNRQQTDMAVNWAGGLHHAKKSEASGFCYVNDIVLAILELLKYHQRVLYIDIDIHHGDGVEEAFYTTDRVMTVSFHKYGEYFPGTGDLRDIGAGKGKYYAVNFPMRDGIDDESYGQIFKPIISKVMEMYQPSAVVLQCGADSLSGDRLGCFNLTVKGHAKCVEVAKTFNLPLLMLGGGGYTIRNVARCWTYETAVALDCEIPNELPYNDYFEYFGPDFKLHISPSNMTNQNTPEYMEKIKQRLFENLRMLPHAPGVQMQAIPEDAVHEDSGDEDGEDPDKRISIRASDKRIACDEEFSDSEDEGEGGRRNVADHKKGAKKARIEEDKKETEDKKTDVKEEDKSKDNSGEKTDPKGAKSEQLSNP

Columns and labels:
[1] = target: PHF21A canonical isoform (PHF21A-c), mouse (mouse (endogenous in MEF and in Phf21a Δn/Δn cortex)) (UniProt Q6ZPK0); assay: affinity purification with mass spectrometry; PHF21A IP (40 ug in-house anti-PHF21A, control rabbit IgG) from nuclear extracts of MEFs and cortical neurons (DIV7); TMT multiplexed MS; n = 3; threshold p < 0.1, FC > 1.5, peptide number >= 6
[2] = target: PHF21A neuronal isoform (PHF21A-n), mouse (mouse (endogenous in cortical neurons and P0 cortex)); assay: affinity purification with mass spectrometry; PHF21A IP (in-house anti-PHF21A, control rabbit IgG) from nuclear extracts of P0 cortices of Phf21a +/+ and Phf21a Δn/Δn mice; TMT multiplexed MS; n = 3-4 per genotype; threshold padj < 0.01, FC > 2, peptide number >= 6
[3] = target: PHF21A neuronal isoform (PHF21A-n), mouse (mouse (endogenous in cortical neurons and P0 cortex)); assay: affinity purification with mass spectrometry; PHF21A IP (40 ug in-house anti-PHF21A, control rabbit IgG) from nuclear extracts of MEFs and cortical neurons (DIV7); TMT multiplexed MS; n = 3; threshold p < 0.1, FC > 1.5, peptide number >= 6

binding [1] | binding [2] | binding [3] | Molecule
binds | – | – | HDAC2, mouse (from UniProt P70288 1-488) (enzyme)
– | binds | – | CPSF6, mouse (protein, UniProt Q6NVF9 1-551) MADGVDHIDIYADVGEEFNQEAEYGGHDQIDLYDDVISPSANNGDAPEDRDYMDTLPPTVGDDVGKGAAPNVVYTYTGKRIALYIGNLTWWTTDEDLTEAVHSLGVNDILEIKFFENRANGQSKGFALVGVGSEASSKKLMDLLPKRELHGQSPVVTPCNKQFLSQFEMQSRKTTQSGQMSGEGKAGPPGGGSRAAFPQGGRGRGRFPGAVPGGDRFPGPAGPGGPPPPFPAGQTPPRPPLGPPGPPGPPGPPPPGQVLPPPLAGPPNRGDRPPPPVLFPGQPFGQPPLGPLPPGPPPPVPGYGPPPGPPPPQQGPPPPPGPFPPRPPGPLGPPLTLAPPPHLPGPPPGAPPPAPHVNPAFFPPPTNSGMPTSDSRGPPPTDPYGRPPPYDRGDYGPPGREMDTARTPLSEAEFEEIMNRNRAISSSAISRAVSDASAGDYGSAIETLVTAISLIKQSKVSADDRCKVLISSLQDCLHGIESKSYGSGSRRERSRERDHSRSREKSRRHKSRSRDRHDDYYRERSRERERHRDRDRDRDRERDREREYRHR
binds | – | binds | HMG20B (BRAF35), mouse (protein, UniProt Q9Z104 1-317) MSHGPRQPGAATAPAGGKTPGQHGAFVVAVKQERSEGSRAGEKGPQEEEPVKKRGWPKGKKRKKILPNGPKAPVTGYVRFLNERREQIRTRHPDLPFPEITKMLGAEWSKLQPAEKQRYLDEAEKEKQQYLKELWAYQQSEAYKVCTEKIQENKIKKEDSSSGLMNTLLNGHKGVDCDGFSTFDVPIFTEEFLDQNKAREAELRRLRKMNVAFEEQNAVLQRHTQSMSSARERLEQELALEERRTLALQQQLQAVRQALTASFASLPVPGTGETPTLGTLDFYMARLHGAIERDPAQHERLIARVKEILARVASEHL
